Results as given in doi:10.1101/2024.12.04.626795 (bioRxiv, 2024).
Results are given in words; binding and its absence hold for the method and conditions named. Binding seen in cells or lysates may run through a third protein. Here binding means that the protein was enriched with, or labelled near, the bait; the list need not be complete. Blank lines part the entries; values can stand above or below the molecule they belong to.

Amino acid sequences for entries named in this document (tags omitted). Residues count along the entry.
UniProt O00487, residues 2-310: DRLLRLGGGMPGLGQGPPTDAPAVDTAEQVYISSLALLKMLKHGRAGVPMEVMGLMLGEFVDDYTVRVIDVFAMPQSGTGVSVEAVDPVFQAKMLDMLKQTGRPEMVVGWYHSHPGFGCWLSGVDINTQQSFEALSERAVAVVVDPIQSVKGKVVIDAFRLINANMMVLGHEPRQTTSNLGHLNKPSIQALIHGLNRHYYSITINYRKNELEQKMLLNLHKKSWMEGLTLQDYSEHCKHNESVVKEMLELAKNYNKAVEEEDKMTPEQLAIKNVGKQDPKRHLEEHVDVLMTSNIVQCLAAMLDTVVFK
UniProt Q53H80: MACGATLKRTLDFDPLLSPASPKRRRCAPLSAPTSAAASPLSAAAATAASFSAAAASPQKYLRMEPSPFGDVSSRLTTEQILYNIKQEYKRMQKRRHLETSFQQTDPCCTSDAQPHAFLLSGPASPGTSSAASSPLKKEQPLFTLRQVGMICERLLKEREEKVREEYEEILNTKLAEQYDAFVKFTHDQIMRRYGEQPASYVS

Target: RPN11-HTBH (HTBH-tagged PSMD14), bait of the 26S proteasome affinity purification (human) (UniProt O00487)
Assay: affinity purification with mass spectrometry

binding: binds
Molecule: AKIRIN2, endogenous in HEK293 cells (from UniProt Q53H80 1-203)

binding: binds
B1: PITHD1 (Proteasome Interacting Thioredoxin Domain 1), wild type (natural protein)
chain: MSHGHSHGGGGCRCAAEREEPPEQRGLAYGLYLRIDLERLQCLNESREGSGRGVFKPWEERTDRSKFVESDADEELLFNIPFTGNVKLKGIIIMGEDDDSHPSEMRLYKNIPQMSFDDTEREPDQTFSLNRDLTGELEYATKISRFSNVYHLSIHISKNFGADTTKVFYIGLRGEWTELRRHEVTICNYEASANPADHRVHQVTPQTHFIS
